Source: PubChem BioAssay AID504764 (Drosophila RNAi Screening Center, 2011)
Purpose: 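Genome-wide screen for regulators of Notch-driven gene expression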 (primary screen). Cells: Drosophila Kc167 cells. Knock-down reagent: long dsRNA against Drosophila genes. Duration: about 5 days (4 days dsRNA, then 24 h after transfection). Treatment: transfection of constitutively active membrane-tethered Notch lacking the extracellular domain, read 24 h later. Measurement: 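Firefly luciferase from an E(spl)m3 reporter with active Notch, plus control-promoter and uninduced reporter wells for normalisation; unnormalised counts, duplicate wells a and b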. Scale: induced reporter light, run 1, well a and induced reporter light, run 1, well b: higher = more light from the Notch target reporter with active Notch; control promoter light, run 1, well a and control promoter light, run 1, well b: higher = more light from the viral control promoter (cell number, transfection, viability); uninduced reporter light, run 1, well a: higher = more light from the Notch target reporter without active Notch. Active means: 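Hit if the duplicate-averaged log2 ratio of induced to control-promoter light gives a plate-wise z beyond ±2, or induced to uninduced beyond ±1.8; weak-control or discordant-duplicate wells dropped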. Meaning of the calls: active = modifier hit (raised or lowered Notch signal); inactive = not a hit.
The screen tested about 22,000 reagents; this is a random part of those that have a named target and a result. In the full data, 403 (1.9%) were called active. 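Unnormalised raw counts per well; ratio z-scores behind the hit calls and whether each hit raises or lowers signal are not deposited.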 A number with no mark means an inactive call. A plus sign joins genes that one reagent is predicted to hit. Reagent sequences are not shown. Not stated in the record: the amount of reagent.

target gene	PubChem SID	induced reporter light, run 1, well a	induced reporter light, run 1, well b	control promoter light, run 1, well a	control promoter light, run 1, well b	uninduced reporter light, run 1, well a
Dysb	SID104190522	1.76e5	1.74e5	2.12e5	1.91e5	11660
CG6465	SID104195838	1.48e5	1.23e5	1.04e5	95040	10635
NimA	SID104181145	63185	85650	1.00e5	1.10e5	8420
CG12865 (retired record)	SID104185997	99955	96460	1.13e5	1.07e5	9370
hbt	SID104182295	94930	1.02e5	92895	91820	11415
CG5024	SID104195490	2.14e5	2.05e5	2.16e5	2.18e5	17578
Oda	SID104187418	94350	84190	1.24e5	1.20e5	8765
HDAC6	SID104200044	2.13e5	1.99e5	2.88e5	2.63e5	13700
Ugt316A1	SID104190168	1.30e5	1.27e5	1.38e5	88935	7270
CG14488	SID104186252	1.23e5	83900	1.12e5	1.14e5	8090
CG13018	SID104186066	94495	86550	1.34e5	1.37e5	8995
CG7443	SID104196036	1.04e5	79710	82675	70145	4475
CG30403	SID104183681	1.53e5	1.16e5	2.97e5	2.92e5	11250
Sfp38D	SID104181602	72470	66475	68525	80820	7045
Rrp46	SID104195329	73945	68930	81075	61720	5255
Impbeta11	SID104187317	88525	89535	1.13e5	1.39e5	9575
CG18788	SID104182489	1.28e5	1.44e5	1.56e5	1.87e5	14045
Dll	SID104184402	1.91e5	1.82e5	1.74e5	1.68e5	11450
Ir60b	SID104184009	1.90e5	1.46e5	1.61e5	1.69e5	12665
Ir54a + sub	SID104186251	1.41e5	74225	1.13e5	1.08e5	6960
CG33178	SID104199742	1.49e5	1.13e5	1.11e5	97385	12820
tweek	SID104182225	1.27e5	1.59e5	1.39e5	1.81e5	10955
tweek	SID104182226	1.09e5 (active)	1.16e5	1.71e5	1.69e5	8165
tweek	SID104182577	1.18e5	1.20e5	88255	85545	15188
Lcp2	SID104187248	1.45e5	1.56e5	1.93e5	1.96e5	14555
B9d1	SID104194785	2.22e5	2.56e5	1.94e5	2.14e5	17750
CG13047	SID104189720	1.77e5	1.44e5	2.64e5	2.03e5	7628
CG15399	SID104180205	1.35e5	1.15e5	1.22e5	1.27e5	10080
CG8526	SID104196230	62155	80175	86670	49210	4565
CG5107	SID104195508	2.78e5 (active)	2.60e5	2.62e5	2.40e5	15290
Indy-2 + CG33934	SID104195477	63905	54070	52935	58265	5770
Indy-2 + CG33934	SID104195478	1.98e5	1.69e5	1.91e5	1.91e5	16875
Hcs	SID104191862	1.76e5	1.86e5	1.48e5	1.57e5	12900
Hcs	SID104192048	74940	70120	67955	47970	5800

3 of these entries, set out differently.
{"target gene":"HDAC6","PubChem SID":"SID104200044","induced reporter light, run 1, well a":2.13e5,"induced reporter light, run 1, well b":1.99e5,"control promoter light, run 1, well a":2.88e5,"control promoter light, run 1, well b":2.63e5,"uninduced reporter light, run 1, well a":13700}
{"target gene":"Ugt316A1","PubChem SID":"SID104190168","induced reporter light, run 1, well a":1.30e5,"induced reporter light, run 1, well b":1.27e5,"control promoter light, run 1, well a":1.38e5,"control promoter light, run 1, well b":88935,"uninduced reporter light, run 1, well a":7270}
{"target gene":"CG14488","PubChem SID":"SID104186252","induced reporter light, run 1, well a":1.23e5,"induced reporter light, run 1, well b":83900,"control promoter light, run 1, well a":1.12e5,"control promoter light, run 1, well b":1.14e5,"uninduced reporter light, run 1, well a":8090}
